According to article PMC7277737:
No constants are given. Whether binding was seen depends on the method and setting. Some binding calls cover weakened binding; strength is not graded here.

Target: cell division protein FtsZ from Actinosynnema pretiosum WXR-24 (Actinosynnema pretiosum WXR-24)
Assay: light scattering; in vitro assembly of 15 uM FtsZ in J buffer (50 mM KCl, 50 mM MES, pH 6.5, 10 mM CaCl2, 5 mM MgCl2), room temperature, started with 1 mM GTP; with or without 500 uM AP-3; both purified

B1: cell division protein FtsZ from Actinosynnema pretiosum WXR-24 (protein, UniProt A0A290ZCJ0 1-404)
chain: MTPPHNYLAVIKVVGIGGGGVNAVNRMIEVGLKGVEFIAVNTDAQALLMSDADVKLDIGRELTRGLGAGANPEVGHKAAEDHREEIEEVLKGADMVFVTAGEGGGTGTGGAPVVASIARKLGALTIGVVTRPFSFEGKRRAKQAEEGIQALRNECDTLIVIPNDRLLQLGDIGVSLMDAFRSADEVLLSGVQGITDLITTPGLINLDFADVKSVMSGAGSALMGIGSARGEGRAVQAAQKAINSPLLEASMEGAHGVLLSIAGGSDLGLFEINESASLVQEAAHPDANIIFGTVIDDSLGDEVRVTVIAAGFDGNGPTHKKLEPQALSSPPKAVEPQPAPPVAVEPSPPPTPPLPTLPVQPQPPASTYQPPQPLPRPLGGLGNRAVPVTDDPDDEVDVPPFMRR
  binding: binds
